Data published in the supplement of paper PMC11546906.
Where a name gives a salt, the structure may show the parent alone. This is one part of the list. Single values are uncertain here, since repeats match poorly.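 A screen tested FDA-approved drugs combined with one-eighth-MIC colistin against a clinical mcr-1-positive, multidrug-resistant E. coli isolate, measuring OD600 at 24 h. Controls were untreated bacteria (growth) and broth alone (blank). An OD600 under 0.2 marked a combination as active.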

tested on: Escherichia coli 42 (mcr-1-positive clinical isolate); experiment: OD600 after 24 h growth with compound plus colistin (absorbance units (OD600)); higher = more bacterial growth (less inhibition); conditions: first compound 25 µM; colistin concentration 0.5 ug/mL; incubation time 24 h; 37 °C

For `COc1cc2nccc(Oc3ccc(NC(=O)NC4CC4)c(Cl)c3)c2cc1C(N)=O` [Lenvatinib] + CCC(C)CCCC(=O)N[C@@H](CCN)C(=O)N[C@H](C(=O)N[C@@H](CCN)C(=O)N[C@H]1CCNC(=O)[C@H]([C@@H](C)O)NC(=O)[C@H](CCN)NC(=O)[C@H](CCN)NC(=O)[C@H](CC(C)C)NC(=O)[C@@H](CC(C)C)NC(=O)[C@H](CCN)NC1=O)[C@@H](C)O [colistin], which OD600 is on record?
The OD600 was inactive: 0.624.

Which OD600 does the source give for `Cc1ncc(CO)c(CO)c1O` [Pyridoxine] + CCC(C)CCCC(=O)N[C@@H](CCN)C(=O)N[C@H](C(=O)N[C@@H](CCN)C(=O)N[C@H]1CCNC(=O)[C@H]([C@@H](C)O)NC(=O)[C@H](CCN)NC(=O)[C@H](CCN)NC(=O)[C@H](CC(C)C)NC(=O)[C@@H](CC(C)C)NC(=O)[C@H](CCN)NC1=O)[C@@H](C)O [colistin] here?
Its OD600 is inactive: 0.948.

For `Cc1ccc(-c2cc(C(F)(F)F)nn2-c2ccc(S(N)(=O)=O)cc2)cc1` [Celecoxib] + CCC(C)CCCC(=O)N[C@@H](CCN)C(=O)N[C@H](C(=O)N[C@@H](CCN)C(=O)N[C@H]1CCNC(=O)[C@H]([C@@H](C)O)NC(=O)[C@H](CCN)NC(=O)[C@H](CCN)NC(=O)[C@H](CC(C)C)NC(=O)[C@@H](CC(C)C)NC(=O)[C@H](CCN)NC1=O)[C@@H](C)O [colistin], which OD600 is on record?
The OD600 was inactive: 1.08.

How did the OD600 turn out when `C=CC(=O)Nc1cc(Nc2nccc(-c3cn(C)c4ccccc34)n2)c(OC)cc1N(C)CCN(C)C` [Osimertinib] + CCC(C)CCCC(=O)N[C@@H](CCN)C(=O)N[C@H](C(=O)N[C@@H](CCN)C(=O)N[C@H]1CCNC(=O)[C@H]([C@@H](C)O)NC(=O)[C@H](CCN)NC(=O)[C@H](CCN)NC(=O)[C@H](CC(C)C)NC(=O)[C@@H](CC(C)C)NC(=O)[C@H](CCN)NC1=O)[C@@H](C)O [colistin] was run?
The OD600 was inactive: 0.773.

How did the OD600 turn out when `CN1CCC[C@@H]1Cc1c[nH]c2ccc(CCS(=O)(=O)c3ccccc3)cc12` [Eletriptan hydrobromide] + CCC(C)CCCC(=O)N[C@@H](CCN)C(=O)N[C@H](C(=O)N[C@@H](CCN)C(=O)N[C@H]1CCNC(=O)[C@H]([C@@H](C)O)NC(=O)[C@H](CCN)NC(=O)[C@H](CCN)NC(=O)[C@H](CC(C)C)NC(=O)[C@@H](CC(C)C)NC(=O)[C@H](CCN)NC1=O)[C@@H](C)O [colistin] was run?
The OD600 was inactive: 1.1.

Which OD600 does the source give for `CO/N=C(\C(=O)N[C@@H]1C(=O)N2C(C(=O)OCOC(=O)C(C)(C)C)=C(/C=C\c3scnc3C)CS[C@H]12)c1csc(N)n1` [Cefditoren pivoxil] + CCC(C)CCCC(=O)N[C@@H](CCN)C(=O)N[C@H](C(=O)N[C@@H](CCN)C(=O)N[C@H]1CCNC(=O)[C@H]([C@@H](C)O)NC(=O)[C@H](CCN)NC(=O)[C@H](CCN)NC(=O)[C@H](CC(C)C)NC(=O)[C@@H](CC(C)C)NC(=O)[C@H](CCN)NC1=O)[C@@H](C)O [colistin] here?
The OD600 was inactive: 0.677.

With `Cc1onc(-c2c(Cl)cccc2Cl)c1C(=O)N[C@@H]1C(=O)N2[C@@H]1SC(C)(C)[C@@H]2C(=O)O` [Dicloxacillin Sodium hydrate] + CCC(C)CCCC(=O)N[C@@H](CCN)C(=O)N[C@H](C(=O)N[C@@H](CCN)C(=O)N[C@H]1CCNC(=O)[C@H]([C@@H](C)O)NC(=O)[C@H](CCN)NC(=O)[C@H](CCN)NC(=O)[C@H](CC(C)C)NC(=O)[C@@H](CC(C)C)NC(=O)[C@H](CCN)NC1=O)[C@@H](C)O [colistin] as the compound, how does the OD600 read?
The OD600 was inactive: 1.04.

How did the OD600 turn out when `O=C(/C=C/n1cnc(-c2cc(C(F)(F)F)cc(C(F)(F)F)c2)n1)NNc1cnccn1` + CCC(C)CCCC(=O)N[C@@H](CCN)C(=O)N[C@H](C(=O)N[C@@H](CCN)C(=O)N[C@H]1CCNC(=O)[C@H]([C@@H](C)O)NC(=O)[C@H](CCN)NC(=O)[C@H](CCN)NC(=O)[C@H](CC(C)C)NC(=O)[C@@H](CC(C)C)NC(=O)[C@H](CCN)NC1=O)[C@@H](C)O [colistin] was run?
The OD600 was inactive: 0.941.

Which OD600 does the source give for `CN(C)c1cc(NC(=O)CNC(C)(C)C)c(O)c2c1C[C@H]1C[C@H]3[C@H](N(C)C)C(=O)C(C(N)=O)=C(O)[C@@]3(O)C(=O)C1=C2O` [Tigecycline] + CCC(C)CCCC(=O)N[C@@H](CCN)C(=O)N[C@H](C(=O)N[C@@H](CCN)C(=O)N[C@H]1CCNC(=O)[C@H]([C@@H](C)O)NC(=O)[C@H](CCN)NC(=O)[C@H](CCN)NC(=O)[C@H](CC(C)C)NC(=O)[C@@H](CC(C)C)NC(=O)[C@H](CCN)NC1=O)[C@@H](C)O [colistin] here?
The OD600 was inactive: 1.11.

Which OD600 does the source give for `N[C@H]1CONC1=O` [L-Cycloserine] + CCC(C)CCCC(=O)N[C@@H](CCN)C(=O)N[C@H](C(=O)N[C@@H](CCN)C(=O)N[C@H]1CCNC(=O)[C@H]([C@@H](C)O)NC(=O)[C@H](CCN)NC(=O)[C@H](CCN)NC(=O)[C@H](CC(C)C)NC(=O)[C@@H](CC(C)C)NC(=O)[C@H](CCN)NC1=O)[C@@H](C)O [colistin] here?
Its OD600 is inactive: 1.11.

`Cc1cc(C)nc(NS(=O)(=O)c2ccc(N)cc2)n1` [Sulfamethazine] + CCC(C)CCCC(=O)N[C@@H](CCN)C(=O)N[C@H](C(=O)N[C@@H](CCN)C(=O)N[C@H]1CCNC(=O)[C@H]([C@@H](C)O)NC(=O)[C@H](CCN)NC(=O)[C@H](CCN)NC(=O)[C@H](CC(C)C)NC(=O)[C@@H](CC(C)C)NC(=O)[C@H](CCN)NC1=O)[C@@H](C)O [colistin] was tested. Which OD600 did it give?
Its OD600 is inactive: 1.

With `N=c1nc(N2CCCCC2)cc(N)n1O` [Minoxidil] + CCC(C)CCCC(=O)N[C@@H](CCN)C(=O)N[C@H](C(=O)N[C@@H](CCN)C(=O)N[C@H]1CCNC(=O)[C@H]([C@@H](C)O)NC(=O)[C@H](CCN)NC(=O)[C@H](CCN)NC(=O)[C@H](CC(C)C)NC(=O)[C@@H](CC(C)C)NC(=O)[C@H](CCN)NC1=O)[C@@H](C)O [colistin] as the compound, how does the OD600 read?
Its OD600 is inactive: 1.1.

How did the OD600 turn out when `CC1=C(/C=C/C(C)=C/C=C/C(C)=C/C(=O)O)C(C)(C)CCC1` [Retinoic acid] + CCC(C)CCCC(=O)N[C@@H](CCN)C(=O)N[C@H](C(=O)N[C@@H](CCN)C(=O)N[C@H]1CCNC(=O)[C@H]([C@@H](C)O)NC(=O)[C@H](CCN)NC(=O)[C@H](CCN)NC(=O)[C@H](CC(C)C)NC(=O)[C@@H](CC(C)C)NC(=O)[C@H](CCN)NC1=O)[C@@H](C)O [colistin] was run?
Its OD600 is inactive: 0.935.

With `CN1CCN(CCCN2c3ccccc3Sc3ccc(C(F)(F)F)cc32)CC1` [Trifluoperazine dihydrochloride] + CCC(C)CCCC(=O)N[C@@H](CCN)C(=O)N[C@H](C(=O)N[C@@H](CCN)C(=O)N[C@H]1CCNC(=O)[C@H]([C@@H](C)O)NC(=O)[C@H](CCN)NC(=O)[C@H](CCN)NC(=O)[C@H](CC(C)C)NC(=O)[C@@H](CC(C)C)NC(=O)[C@H](CCN)NC1=O)[C@@H](C)O [colistin] as the compound, how does the OD600 read?
The OD600 was active: 0.039.

With `COC(=O)C1=C(C)NC(C)=C(C(=O)OC(C)C)C1c1cccc2nonc12` (stereo not given) [Isradipine] + CCC(C)CCCC(=O)N[C@@H](CCN)C(=O)N[C@H](C(=O)N[C@@H](CCN)C(=O)N[C@H]1CCNC(=O)[C@H]([C@@H](C)O)NC(=O)[C@H](CCN)NC(=O)[C@H](CCN)NC(=O)[C@H](CC(C)C)NC(=O)[C@@H](CC(C)C)NC(=O)[C@H](CCN)NC1=O)[C@@H](C)O [colistin] as the compound, how does the OD600 read?
The OD600 was inactive: 1.08.

Which OD600 does the source give for `CC(C)/N=c1\cc2n(-c3ccc(Cl)cc3)c3ccccc3nc-2cc1Nc1ccc(Cl)cc1` [Clofazimine] + CCC(C)CCCC(=O)N[C@@H](CCN)C(=O)N[C@H](C(=O)N[C@@H](CCN)C(=O)N[C@H]1CCNC(=O)[C@H]([C@@H](C)O)NC(=O)[C@H](CCN)NC(=O)[C@H](CCN)NC(=O)[C@H](CC(C)C)NC(=O)[C@@H](CC(C)C)NC(=O)[C@H](CCN)NC1=O)[C@@H](C)O [colistin] here?
Its OD600 is inactive: 1.15.

For `O=C1CCc2ccc(OCCCCN3CCN(c4cccc(Cl)c4Cl)CC3)cc2N1` [Aripiprazole] + CCC(C)CCCC(=O)N[C@@H](CCN)C(=O)N[C@H](C(=O)N[C@@H](CCN)C(=O)N[C@H]1CCNC(=O)[C@H]([C@@H](C)O)NC(=O)[C@H](CCN)NC(=O)[C@H](CCN)NC(=O)[C@H](CC(C)C)NC(=O)[C@@H](CC(C)C)NC(=O)[C@H](CCN)NC1=O)[C@@H](C)O [colistin], which OD600 is on record?
The OD600 was inactive: 0.818.

With `CN1[C@@H]2CC[C@H]1C[C@@H](OC(c1ccccc1)c1ccccc1)C2` [Benztropine mesylate] + CCC(C)CCCC(=O)N[C@@H](CCN)C(=O)N[C@H](C(=O)N[C@@H](CCN)C(=O)N[C@H]1CCNC(=O)[C@H]([C@@H](C)O)NC(=O)[C@H](CCN)NC(=O)[C@H](CCN)NC(=O)[C@H](CC(C)C)NC(=O)[C@@H](CC(C)C)NC(=O)[C@H](CCN)NC1=O)[C@@H](C)O [colistin] as the compound, how does the OD600 read?
Its OD600 is inactive: 0.883.

How did the OD600 turn out when `CN(CCOc1ccc(CC2SC(=O)NC2=O)cc1)c1ccccn1` (stereo not given) [Rosiglitazone maleate] + CCC(C)CCCC(=O)N[C@@H](CCN)C(=O)N[C@H](C(=O)N[C@@H](CCN)C(=O)N[C@H]1CCNC(=O)[C@H]([C@@H](C)O)NC(=O)[C@H](CCN)NC(=O)[C@H](CCN)NC(=O)[C@H](CC(C)C)NC(=O)[C@@H](CC(C)C)NC(=O)[C@H](CCN)NC1=O)[C@@H](C)O [colistin] was run?
Its OD600 is inactive: 0.866.

How did the OD600 turn out when `C=C[C@]1(C)C[C@@H](OC(=O)CS[C@@H]2CC[C@@H](N)C[C@H]2O)[C@]2(C)[C@H](C)CC[C@]3(CCC(=O)[C@H]32)[C@@H](C)[C@@H]1O` [Lefamulin acetate] + CCC(C)CCCC(=O)N[C@@H](CCN)C(=O)N[C@H](C(=O)N[C@@H](CCN)C(=O)N[C@H]1CCNC(=O)[C@H]([C@@H](C)O)NC(=O)[C@H](CCN)NC(=O)[C@H](CCN)NC(=O)[C@H](CC(C)C)NC(=O)[C@@H](CC(C)C)NC(=O)[C@H](CCN)NC1=O)[C@@H](C)O [colistin] was run?
The OD600 was active: 0.043.
